According to patent US20230057263A1:
Changes are numbered by the printed parent chain. No constants are given. Whether binding was seen depends on the method and setting. Some entries that bind do so weakly or less than the wild type. Each block holds one binder with its values, some of them ahead of it.

Protein sequences, listed by entry. Tags and fused reporters are not part of them. Lines headed by an entry give the natural chain unless they say otherwise; changes in a name come on top.
UniProt P07766: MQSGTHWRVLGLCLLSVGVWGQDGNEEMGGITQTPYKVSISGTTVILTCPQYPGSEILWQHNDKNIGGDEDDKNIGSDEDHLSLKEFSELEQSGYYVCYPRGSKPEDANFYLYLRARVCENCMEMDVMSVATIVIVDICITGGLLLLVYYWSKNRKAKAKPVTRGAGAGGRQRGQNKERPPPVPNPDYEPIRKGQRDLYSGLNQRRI

Columns and labels:
[1] = target: AGS73.15 (MS497); assay: flow cytometry; inhibition of AGS73.15 binding to human T cells by titrated anti-ID
[2] = target: AGS73.15 (MS497); assay: flow cytometry, blocking of AGS73.15 (200 ng/ml) binding to CD3ε on human T cells; AGS73.15 detected with anti-human IgG Fc-PE
[3] = target: human CD3 epsilon (CD3ε) (human) (UniProt P07766); assay: flow cytometry on human T cells
[4] = target: human CD3 epsilon (CD3ε) (human) (UniProt P07766); assay: flow cytometry on human donor T cells

- binding [1]: binds
- binding [2]: binds
B2: 6d59.id.1b61.1 (antibody, V domains shown)
VH: DVQLQESGPGLVKPSQSLSLTCSVTGYSITSSYYWNWIRQFPGNKLEWMGYIMYDGNNNYNPSLKNRISITRDTSKNQFFLKLNSVTTEDTATYYCARNMADYFGNTYDALDYWGQGTSVTVSS
VL: DILLTQSPGSLAVSLGQRATISCKASQSADYGGDSYMSWYQQKPGQPPKLLIYAASNLESGTPARFSGSGSGTDFTLNIHPVEEEDAATYYCQQGNEDPWTFGGGTKLEIKR

- binding [1]: binds
- binding [2]: binds
B3: 6d59.id.1b67.1 (antibody, V domains shown)
VH: QVTLKESGPGILKPSQTLSLTCSFSGFSLSTSGMGVGWIRQPSGKGLEWLAHIWWDDDKFYKPSLKNRLTISKDTSRNQVFLKITSVDTADAATYFCVRRSAYEAFTLDYWGQGTSVTVSS
VL: DIMLTQSPASLAVSLGQRATISCKASQSVDYDGNGYLNWYQQKPGQPPKLLIYAASNLESGIPARFSGSGSGTDFTLNIHPVEEEDVATYYCQQSSEDPFTFGSGTKLEIKR

More lines, now with the values behind:

B1: 6d59.id.1b54.1 (antibody, V domains shown)
VH: B2 VH with Y51S
VL: B2 VL
- binding [1]: binds
- binding [2]: binds

B4: 6d58 (antibody, V domains shown)
VH: QVHLVESGGGVVQPGRSLRLSCAASGFKFRSYGMHWVRQAPGKGLEWVAIIWYDGSKRYYADSVKGRFTISRDNSKNTLYLQMSSLRAEDTAVYYCARDLITGTTDYWGQGTLVTVSS
VL: DVVMTQSPLSLPVTLGQPASISCRSSRSLVYSDGNTHLIWFQQRPGQSPRRLIYRVSNRVSGVPDRFSGSGSGTDFTLKISRVEAEDVGVYYCLQGAHWPYTFGQGTKLEIKR
- binding [3]: binds
- binding [4]: binds

B5: 6d59 (antibody, V domains shown)
VH: B4 VH
VL: B4 VL
- binding [3]: binds
- binding [4]: binds
